Test results: PMC10397244
No constants are given. Whether binding was seen depends on the method and setting. Binding seen in cells or lysates may run through a third protein. Some results given as binding are weak or reduced against the parent protein; the word gives no strength. Tags and fused reporters may be left off the sequences shown.

How the values were obtained:
[1] = target: T1, RGLG2-FLAG (Arabidopsis thaliana) (UniProt Q9LY87); test: co-IP; Arabidopsis protoplasts co-transfected with pHBT plasmids, 10 h; with or without 2.5 uM flg22 for 30 min (some with MG132; Col-0, bak1 or rglg1 rglg2 protoplasts); IP with anti-FLAG antibodies and protein G agarose, 4 C; 10 mM HEPES pH 7.5, 100 mM NaCl, 0.5% Triton X-100
T1 sequence: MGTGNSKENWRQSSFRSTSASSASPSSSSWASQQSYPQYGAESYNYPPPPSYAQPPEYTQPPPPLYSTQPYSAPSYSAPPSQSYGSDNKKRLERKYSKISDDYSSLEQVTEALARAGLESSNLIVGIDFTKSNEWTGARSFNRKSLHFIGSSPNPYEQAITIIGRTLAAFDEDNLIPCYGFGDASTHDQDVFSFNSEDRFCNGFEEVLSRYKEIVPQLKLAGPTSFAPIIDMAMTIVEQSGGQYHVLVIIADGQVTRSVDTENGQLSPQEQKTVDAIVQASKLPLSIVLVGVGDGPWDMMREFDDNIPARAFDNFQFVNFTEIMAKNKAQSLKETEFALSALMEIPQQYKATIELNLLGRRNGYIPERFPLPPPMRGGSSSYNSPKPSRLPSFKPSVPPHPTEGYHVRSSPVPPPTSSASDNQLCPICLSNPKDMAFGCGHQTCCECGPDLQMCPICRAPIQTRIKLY

[2] = target: T2, BIK1-NLuc (Arabidopsis thaliana) (UniProt O48814); test: split reporter; split-luciferase complementation; CLuc and NLuc fusions co-infiltrated into N. benthamiana leaves, luminescence two days later; with or without 5 uM flg22 for 30 min
T2 sequence: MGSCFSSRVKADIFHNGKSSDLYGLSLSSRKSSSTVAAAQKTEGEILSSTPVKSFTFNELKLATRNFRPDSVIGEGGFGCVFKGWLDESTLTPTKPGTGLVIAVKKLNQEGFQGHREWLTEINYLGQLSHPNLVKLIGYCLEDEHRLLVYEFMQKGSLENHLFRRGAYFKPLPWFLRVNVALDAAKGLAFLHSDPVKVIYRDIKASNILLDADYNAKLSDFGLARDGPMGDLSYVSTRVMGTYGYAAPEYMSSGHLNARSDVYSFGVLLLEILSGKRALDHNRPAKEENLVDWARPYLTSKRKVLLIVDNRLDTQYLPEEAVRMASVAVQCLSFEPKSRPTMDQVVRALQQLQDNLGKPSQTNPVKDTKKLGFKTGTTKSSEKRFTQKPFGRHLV

B1: BAK1-HA (receptor, UniProt Q94F62 26-615)
chain: NAEGDALSALKNSLADPNKVLQSWDATLVTPCTWFHVTCNSDNSVTRVDLGNANLSGQLVMQLGQLPNLQYLELYSNNITGTIPEQLGNLTELVSLDLYLNNLSGPIPSTLGRLKKLRFLRLNNNSLSGEIPRSLTAVLTLQVLDLSNNPLTGDIPVNGSFSLFTPISFANTKLTPLPASPPPPISPTPPSPAGSNRITGAIAGGVAAGAALLFAVPAIALAWWRRKKPQDHFFDVPAEEDPEVHLGQLKRFSLRELQVASDNFSNKNILGRGGFGKVYKGRLADGTLVAVKRLKEERTQGGELQFQTEVEMISMAVHRNLLRLRGFCMTPTERLLVYPYMANGSVASCLRERPESQPPLDWPKRQRIALGSARGLAYLHDHCDPKIIHRDVKAANILLDEEFEAVVGDFGLAKLMDYKDTHVTTAVRGTIGHIAPEYLSTGKSSEKTDVFGYGVMLLELITGQRAFDLARLANDDDVMLLDWVKGLLKEKKLEALVDVDLQGNYKDEEVEQLIQVALLCTQSSPMERPKMSEVVRMLEGDGLAERWEEWQKEEMFRQDFNYPTHHPAVSGWIIGDSTSQIENEYPSGPR
binding [1]: binds

B2: RGLG1-CLuc (protein, UniProt Q9SS90 1-489)
chain: MGGGNSKEESSSPSSSSWASHQSYPQYGPDSYNYPPPPTYAPAPSPAPAPAPVPAPSPASSYGPQYSQEGYASQPNNPPPPTYAPAPSPASSYGHQYSQEGYASAASQPNYPPPPSQSQVADRKKFDRRYSKISDNYSSLLQVSEALGRAGLESSNLIVGIDFTKSNEWTGAKSFNRKSLHHLSNTPNPYEQAITIIGRTLAAFDEDNLIPCYGFGDASTHDQDVFSFYPEGRFCNGFEEVLARYREIVPQLKLAGPTSFAPIIEMAMTVVEQSSGQYHVLVIIADGQVTRSVDTEHGRLSPQEQKTVDAIVKASTLPLSIVLVGVGDGPWDMMQEFDDNIPARAFDNFQFVNFTEIMSKNKDQSRKETEFALSALMEIPPQYKATIELNLLGVRNGNIPQRIPLPPPVQSGSSFSSSRIPNFEPSVPPYPFESKQMSSADDIQLCPICLSNPKNMAFGCGHQTCCECGPDLKVCPICRAPIQTRIKLY
binding [2]: binds
